The record followed here is US8034636B2, “Hydrophilic chemiluminescent acridinium labeling reagents” (Quest Diagnostics Investments Incorporated, priority 2002, dated 2011).

This data set in a line: Specific chemiluminescence activity (Berthold chemiluminometer). It counts as physicochemical. Here is the method: To a stirred suspension of 2,6-(dimethyl)phenyl-N-(3-sulfopropyl)acridine-9-carboxylate (180 mg, 0.40 mmole) in 12 ml dry dichloromethane in a 25-ml oven-dried flask under argon, was added 400 microliters of 99+% chlorosulfonic acid (0.70 g, 6.0 mmole). The chlorosulfonation was allowed to proceed overnight under argon at room temperature. The small amount of insoluble brown solid was allowed to settle and then the yellow supernatant was added dropwise from a Pasteur pipet to a flask containing stirred 100 ml of anhydrous ether under argon. The product was collected on a sintered glass funnel under a blanket of argon under a large inverted funnel and then washed with about 30 ml of dry ether. […] Specific chemiluminescence activity in 0.4% BSA in phosphate buffer pH 6.0 using the Berthold chemiluminometer=3.8×10^19 relative luminescence units per mole.
In preparation for conjugation using SPAE, 1 mg (6.7 nanomole) of goat anti-TSH tag antibody was buffer-exchanged in an Amicon Centricon concentrator cartridge (MW=cut-off=30,000) to produce a solution of 1 mg antibody in 400 μl of 100 mM carbonate pH 9.6. […] The UV-vis spectrum of an aliquot of the conjugate fraction acidified to pH 2 was recorded to determine the number of acridinium labels per IgG molecule. […] The specific chemiluminescence activity for this conjugate measured using the Berthold Chemiluminometer was 743 RLU/pg. […]

As to `Cc1ccc(S(=O)(=O)Cl)c(C)c1OC(=O)c1c2ccccc2[n+](CCCS(=O)(=O)[O-])c2ccccc12` [SPAE, 2,6-(dimethyl)-3-chlorosulfonylphenyl-N-(3-sulfopropyl)-acridinium-9-carboxylate], the Specific chemiluminescence activity (0.4% BSA in phosphate buffer pH 6.0, Berthold chemiluminometer) is listed as 3.8×10^19 relative luminescence units per mole.
In the case of “SPAE-(polyethyleneoxide)-4-pentafluorophenyl ester [SPAE-PEO4-PFP]”, the “specific chemiluminescence activity of conjugate” value (goat polyclonal anti-TSH conjugate, 22× reagent/antibody molar ratio) worked out at 332 RLU/pg.
